Laboratory results: US20170157212A1, “CDK MODULATORS AND METHODS FOR THE TREATMENT OF CANCER” (Salk Institute for Biological Studies, priority 2015, published 2017)
Results are given in words; binding and its absence hold for the method and conditions named. Binding seen in cells or lysates may run through a third protein. Some binding calls cover weakened binding; strength is not graded here.

By UniProt entry, the sequences of proteins in these tests, tags left out.
UniProt Q9NYV4: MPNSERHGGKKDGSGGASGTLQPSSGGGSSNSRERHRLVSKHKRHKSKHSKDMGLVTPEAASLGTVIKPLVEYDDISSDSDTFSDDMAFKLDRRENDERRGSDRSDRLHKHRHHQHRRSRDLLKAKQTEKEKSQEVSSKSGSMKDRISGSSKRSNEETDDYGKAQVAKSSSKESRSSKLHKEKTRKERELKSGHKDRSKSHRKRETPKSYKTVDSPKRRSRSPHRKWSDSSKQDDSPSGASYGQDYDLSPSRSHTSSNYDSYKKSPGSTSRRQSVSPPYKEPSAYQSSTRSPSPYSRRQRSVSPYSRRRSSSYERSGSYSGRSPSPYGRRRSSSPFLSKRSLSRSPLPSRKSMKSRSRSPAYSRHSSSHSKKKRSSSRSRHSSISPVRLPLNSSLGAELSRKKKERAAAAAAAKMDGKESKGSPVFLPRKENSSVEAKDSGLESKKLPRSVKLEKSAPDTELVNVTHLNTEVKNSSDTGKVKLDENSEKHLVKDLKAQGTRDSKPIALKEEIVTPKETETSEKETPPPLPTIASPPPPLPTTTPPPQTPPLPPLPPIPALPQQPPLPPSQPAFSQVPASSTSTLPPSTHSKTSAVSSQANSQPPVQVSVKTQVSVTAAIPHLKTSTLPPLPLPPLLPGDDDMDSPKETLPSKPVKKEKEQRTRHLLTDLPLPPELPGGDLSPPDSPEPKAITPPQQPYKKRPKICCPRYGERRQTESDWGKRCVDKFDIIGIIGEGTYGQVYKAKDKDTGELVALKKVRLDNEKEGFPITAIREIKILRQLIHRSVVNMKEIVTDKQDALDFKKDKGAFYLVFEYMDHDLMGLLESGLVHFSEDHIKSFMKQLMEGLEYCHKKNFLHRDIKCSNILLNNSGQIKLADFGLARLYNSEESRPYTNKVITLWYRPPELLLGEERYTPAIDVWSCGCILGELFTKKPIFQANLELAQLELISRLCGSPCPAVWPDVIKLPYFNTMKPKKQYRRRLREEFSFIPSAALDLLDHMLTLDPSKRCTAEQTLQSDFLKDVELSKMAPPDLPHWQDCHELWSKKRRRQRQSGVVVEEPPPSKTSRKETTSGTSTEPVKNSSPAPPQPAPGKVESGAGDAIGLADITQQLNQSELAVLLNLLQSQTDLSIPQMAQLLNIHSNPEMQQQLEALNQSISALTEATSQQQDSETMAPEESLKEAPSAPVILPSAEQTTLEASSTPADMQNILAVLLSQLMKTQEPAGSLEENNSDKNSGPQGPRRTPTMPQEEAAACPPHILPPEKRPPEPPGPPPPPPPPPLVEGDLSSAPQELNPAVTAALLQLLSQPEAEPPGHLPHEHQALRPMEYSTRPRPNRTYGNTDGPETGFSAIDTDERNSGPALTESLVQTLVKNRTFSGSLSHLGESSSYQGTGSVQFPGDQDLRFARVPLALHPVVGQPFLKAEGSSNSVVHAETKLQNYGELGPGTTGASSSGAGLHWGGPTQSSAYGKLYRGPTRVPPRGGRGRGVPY
UniProt O75909: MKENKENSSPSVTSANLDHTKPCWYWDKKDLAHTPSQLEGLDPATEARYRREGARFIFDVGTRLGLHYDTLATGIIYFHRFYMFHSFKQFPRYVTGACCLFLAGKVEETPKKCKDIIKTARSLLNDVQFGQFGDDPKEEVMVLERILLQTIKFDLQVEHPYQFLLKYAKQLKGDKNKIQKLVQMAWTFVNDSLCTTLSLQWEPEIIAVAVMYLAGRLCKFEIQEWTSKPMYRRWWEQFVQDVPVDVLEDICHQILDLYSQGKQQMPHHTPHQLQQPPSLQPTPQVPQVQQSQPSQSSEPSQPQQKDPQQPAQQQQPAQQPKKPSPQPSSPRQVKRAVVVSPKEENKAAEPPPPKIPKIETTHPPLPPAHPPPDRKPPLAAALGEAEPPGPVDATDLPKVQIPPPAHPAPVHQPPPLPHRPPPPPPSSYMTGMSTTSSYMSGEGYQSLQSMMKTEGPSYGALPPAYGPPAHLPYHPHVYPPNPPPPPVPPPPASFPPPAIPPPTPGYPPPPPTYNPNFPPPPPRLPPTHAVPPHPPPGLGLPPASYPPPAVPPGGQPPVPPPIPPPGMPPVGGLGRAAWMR

Biological target: CDK12, native (endogenous) human (human) (UniProt Q9NYV4)
Assay: co-immunoprecipitation from U2OS cells with or without tBHQ (FIG. 7E)

binding: binds
Substance: CCNK (from UniProt O75909 1-580)
